The nature of the data set: peptide made by a vendor. The following applies: whole synthesis, RP-HPLC, TFA salt.

Plain letter strings leave the end groups untold.

For GLARILLRWLFFRG, the “final HPLC purity” value is given as over 97%.

Values taken from US9701716B2 (Centaur, Inc., priority 2014, dated 2017).
